Some of these results come from one statement about several compounds together.
What was measured:
Puccinia recondita = test: Action against Puccinia recondita/wheat/leaf disc preventative (brown rust); assay type: in vivo; conditions: wheat leaf segments, 60 ppm active ingredient, sprayed before inoculation, assessed 8 dpi
[1] = test system: Mycosphaerella graminicola (Septoria tritici); test: Action against Mycosphaerella graminicola/liquid culture (Septoria blotch); assay type: cell-based; conditions: liquid culture (PDB), 200 ppm active ingredient, 24° C., photometrically after 4 days
[2] = test system: Mycosphaerella arachidis (Cercospora arachidicola); test: Action against Mycosphaerella arachidis/liquid culture (early leaf spot); assay type: cell-based; conditions: liquid culture (PDB), 200 ppm active ingredient, 24° C., photometrically after 6-7 days
[3] = test system: Botryotinia fuckeliana (Botrytis cinerea); test: Action against Botryotinia fuckeliana/liquid culture (gray mould); assay type: cell-based; conditions: liquid culture, 200 ppm active ingredient, 24° C., photometrically after 3-4 days
[4] = test system: Fusarium graminearum, Syn. Gibberella zeae; assay type: in vivo; conditions: wheat spikelets, 60 ppm active ingredient, sprayed before inoculation, assessed 6 dpi
Fusarium culmorum = assay type: in vivo; conditions: wheat spikelets, 60 ppm active ingredient, sprayed before inoculation, assessed 6 dpi
[5] = test system: Erysiphe graminis f. sp. hordei; test: Action against Erysiphe graminis f. sp. hordei (barley powdery mildew), curative; assay type: in vivo; conditions: barley leaf segments, 60 ppm active ingredient, sprayed 24 h after inoculation, assessed 7 dpi
Pyrenophora teres = test: Action against Pyrenophora teres (net blotch), barley leaf segments, preventive; assay type: in vivo; conditions: 60 ppm active ingredient, sprayed before inoculation, assessed 4 dpi
Description: Barley leaf segments are placed on agar in multiwell plates (24-well format) and sprayed with test solutions (60 ppm active ingredient). After drying, the leaf disks are inoculated with a spore suspension of the fungus. After appropriate incubation the activity of a compound is assessed 4 dpi (days after inoculation) as preventive fungicidal activity.

| Structure (SMILES) | inhibition (preventive fungicidal activity) (Puccinia recondita) [%] | inhibition of growth [1] [%] | inhibition of growth [2] [%] | inhibition of growth [3] [%] | inhibition (preventative fungicidal activity) [4] [%] | inhibition (preventative fungicidal activity) (Fusarium culmorum) [%] | inhibition (curativ fungicidal activity) [5] [%] | inhibition (preventive fungicidal activity) (Pyrenophora teres) [%] |
| --- | --- | --- | --- | --- | --- | --- | --- | --- |
| CON(C(=O)c1cn(C)nc1C(F)F)C(C)Cc1sc2cc(Cl)ccc2c1Cl (stereo not shown) [Compound 1.002] | ≥ 80 | 80 | 80 | ≥ 80 | ≥ 80 | ≥ 80 | ≥ 80 | ≥ 80 |
| CON(C(=O)c1cn(C)nc1C(F)F)C(C)Cc1sc2ccc(Br)cc2c1Cl (stereo not shown) [Compound 1.006] | ≥ 80 | 80 | 80 | ≥ 80 | ≥ 80 | ≥ 80 | ≥ 80 | ≥ 80 |
| COC(c1sc2cc(Cl)ccc2c1Cl)C(C)N(OC)C(=O)c1cn(C)nc1C(F)F (stereo not shown) [Compound 1.015] | ≥ 80 | 80 | 80 | ≥ 80 | ≥ 80 | ≥ 80 | ≥ 80 | ≥ 80 |
| CON(C(=O)c1cn(C)nc1C(F)(F)F)C(C)Cc1sc2cc(Cl)ccc2c1Cl (stereo not shown) [Compound 2.002] | ≥ 80 | 80 | 80 | ≥ 80 |  | ≥ 80 | ≥ 80 | ≥ 80 |
| COC(c1sc2cc(Cl)ccc2c1Cl)C(C)N(OC)C(=O)c1cn(C)nc1C(F)(F)F (stereo not shown) [Compound 2.015] |  | 80 | 80 | ≥ 80 | ≥ 80 |  | ≥ 80 | ≥ 80 |

— patent US8268877B2, “Microbiocides” (Syngenta Crop Protection, LLC, priority 2009, dated 2012)
